Experimental data taken from patent EP4847499A1, “HETEROCYCLIC COMPOUND FOR INDUCING DEGRADATION OF KRAS PROTEIN” (dated 2026).
The structures given here were assigned with low confidence; some may be wrong.

Legend:
[1] = system: human G12C mutant KRAS-positive lung cancer line NCI-H358; experiment: Non-anchorage-dependent cell growth inhibition, spheroid 3D cell culture (CellTiter Glo 2.0); conditions: read-out: G12C (NCI-H358) IC50; NCI-H358, 3D spheroid, 6 days
Source text: (§1) Test Example 2: Evaluation of non-anchorage-dependent cell growth inhibitory effect on human G12V mutant KRAS-positive pancreatic cancer line PA-TU-8902, human G12D mutant KRAS-positive pancreatic cancer line PK-59, human G12C mutant KRAS-positive pancreatic cancer line MIA PaCa-2, human G12C mutant KRAS-positive lung cancer line NCI-H358, human G12D mutant KRAS-positive colorectal cancer line GP2d, human G13D mutant KRAS-positive colorectal cancer line LoVo, or human wild-type KRAS gene amplification-positive gastric cancer line MKN1 The non-anchorage-dependent cell growth inhibitory effect of test compounds was evaluated by spheroid 3D cell culture.
(§2) PA-TU-8902 cells or GP2d cells (ECACC, 95090714), Pk-59 cells (RIKEN BRC, RCB1901), MIA PaCa-2 cells (RIKEN BRC, RCB2094), NCI-H358 cells (ATCC, CRL-5807), LoVo cells (ATCC, CCL-229), or MKN1 cells (JCRB, JCRB0252) were seeded on low-cell-adhesive round bottom 384-well plates (Prime Surface: from Sumitomo Bakelite) at 36 µL/well to give 5 × 10^2 cells per well, and the PA-TU-8902 cells were cultured under the same conditions as in Test Example 1. The GP2d cells were cultured using DMEM medium containing 10% fetal bovine serum in the presence of 5% CO2 at 37°C. The PK-59 cells, MIA PaCa-2 cells, LoVo cells, NCI-H358 cells, or MKN1 cells were cultured using RPMI-1640 medium (from Sigma-Aldrich) containing 10% fetal bovine serum in the presence of 5% CO2 at 37°C.
(§3) The next day, the test compounds (10 points having final concentrations in the range of 10 µM to 0.03 nM) and DMSO, which was the solvent for the test compounds, as a negative control were diluted 100-fold with a fresh medium and were added at 4 µL to each well containing the PA-TU-8902 cells, PK-59 cells, MIA PaCa-2 cells, LoVo cells, NCI-H358 cells, or MKN1 cells. After culturing in the presence of 5% CO2 at 37°C for 6 days, CellTiter Glo 2.0 (from Promega) was added at 20 µL per well. After stirring with a plate mixer at room temperature for 1 hour, the luminescent signals were measured with ARVO X3 (from PerkinElmer).
(§4) With the signaling value in treatment with DMSO taken as a survival rate of 100% and with the signaling value in the medium alone without cells taken as a survival rate of 0%, the 50% inhibitory concentration (IC50) was calculated by Sigmoid-Emax model nonlinear regression analysis.

[2] = system: human G12C mutant KRAS-positive pancreatic cancer line MIA PaCa-2; experiment: as above; conditions: read-out: G12C (MIA PaCa-2) IC50; MIA PaCa-2, 3D spheroid, 6 days
Source text: as §1, §2, §3, §4

[3] = system: human G12D mutant KRAS-positive pancreatic cancer line PK-59; experiment: as above; conditions: read-out: G12D (PK-59) IC50; PK-59, 3D spheroid, 6 days
Source text: as §1, §2, §3, §4

[4] = system: human G12V mutant KRAS-positive pancreatic cancer line PA-TU-8902; experiment: as above; conditions: read-out: G12V (PA-TU-8902) IC50; PA-TU-8902, 3D spheroid, 6 days
Source text: as §1, §2, §3, §4

[5] = system: human G13D mutant KRAS-positive colorectal cancer line LoVo; experiment: as above; conditions: read-out: G13D (LoVo) IC50, 3D spheroid, 6 days
Source text: as §1, §2, §3, §4

[6] = system: human wild-type KRAS gene amplification-positive gastric cancer line MKN1; experiment: as above; conditions: read-out: Wild-type amplification (MKN1) IC50; MKN1, 3D spheroid, 6 days
Source text: as §1, §2, §3, §4

[7] = system: human G12D mutant KRAS-positive colorectal cancer line GP2d tumor-bearing mice; experiment: Anti-tumor activity in GP2d tumor-bearing mice; conditions: 3 mg/kg, tail vein, once a week, twice in total; two weeks after grouping; GP2d subcutaneous tumor
Experimental: Test Example 3: Evaluation of anti-tumor activity in human G12D mutant KRAS-positive colorectal cancer line GP2d tumor-bearing mice
GP2d cells were cultured under the same conditions as in Test Example 2. The GP2d cells were collected and suspended in PBS, and a cell suspension prepared at 4.0 × 10^7 cells/mL with two equal volumes of VitroGel Hydrogel Matrix (from TheWell Bioscience) was subcutaneously inoculated into 4- to 5-week-old male nude mice (BALB/c-nu (nu/nu), from The Jackson Laboratory Japan, Inc.) in a volume of 100 µL. About two weeks after the inoculation, the mice were divided into groups so that all the groups had approximately the same tumor volume and body weight, and administration of a test compound was started on the next day. The study was conducted for 5 mice each of a vehicle control group and test compound administration groups. The test compounds were dissolved in a solvent containing ethanol (from FUJIFILM Wako Pure Chemical Corporation), a 5% glucose solution (from Otsuka Pharmaceutical), 1 M hydrochloric acid, a 50% solution of (2-hydroxypropyl)-β-cyclodextrin (HP-βCD) (from ROQUETTE), HCO-40 (from Nikko Chemicals Co., Ltd.), and 1 M sodium hydroxide solution at a liquid amount ratio of 4:84.4:1.1:1:9:0.5. The test compound or vehicle control was administered into the tail vein. The administration was performed once a week and twice in total. The tumor sizes and the body weights were measured twice a week. The tumor volumes were calculated using the following equation. [formula]
The tumor growth inhibition rate (%) by the test compound was calculated with the tumor volume of the test compound administration group on the previous day of the start of the administration taken as 100% inhibition and the tumor volumes of the vehicle groups two weeks after the day of grouping taken as 0% inhibition. In addition, when the tumor volume of a test compound administration group was smaller than the tumor volume on the previous day of the start of the administration, the tumor regression rate (%) by the test compound was calculated with the tumor volume on the previous day of the start of the administration taken as 0% regression and with the tumor volume 0 taken as 100% regression. The results for some test compounds of formula (I) and formula (I-I) are shown in a table below.

Row | Structure (SMILES) | IC50 [1] | IC50 [2] | IC50 [3] | IC50 [4] | IC50 [5] | IC50 [6] | Anti-tumor activity: tumor regression rate [7] | Anti-tumor activity: tumor growth inhibition rate [7]
1 | Cc1c(OCCC2CCC3(CC2)CCN(C(=O)c2ccc(COc4c(-c5c(C)c(F)cc6[nH]ncc56)c(C5CC5)cc5c(N6CC[C@H]6C(N)=O)nc(N6CCN(C)[C@@H](C)C6)nc45)cc2)CC3)cncc1N1CCC(=O)NC1=O | 2.8 nM | 3.1 nM | 4.1 nM | 8.5 nM | 46 nM | 2.8 nM | 18% regression | 
2 | Cc1c(F)cc2[nH]ncc2c1-c1c(C2CC2)cc2c(N3CC[C@H]3C(N)=O)nc(N3CCN(C)[C@@H](C)C3)nc2c1OCc1ccc(C(=O)N2CCC3(CCC(CC#Cc4cc(N5CCC(=O)NC5=O)ccn4)CC3)CC2)cc1 | 1.5 nM | 1.8 nM | 5.1 nM | 8.9 nM | 33 nM | 2.1 nM |  | 97% inhibition
3 | CCN1CCN(c2nc(N3CC[C@H]3C(N)=O)c3cc(C4CC4)c(-c4c(C)c(F)cc5[nH]ncc45)c(OCc4ccc(C(=O)N5CCC6(CCC(CCOc7cncc(N8CCC(=O)NC8=O)c7)CC6)CC5)cc4)c3n2)C[C@@H]1C | 1.7 nM | 4.6 nM | 6.2 nM | 11 nM | 73 nM | 1.9 nM | 29% regression | 
4 | Cc1c(F)cc2[nH]ncc2c1-c1c(C2CC2)cc2c(N3CC[C@H]3C(N)=O)nc(OCC(C)(C)CN(C)C)nc2c1OCc1ccc(C(=O)N2CCC3(CCC(CCOc4cc(N5CCC(=O)NC5=O)ccn4)CC3)CC2)cc1 | 2.9 nM | 4.6 nM | 7.3 nM | 16 nM | 30 nM | 3.1 nM |  | 85% inhibition
